Assay results taken from paper PMC10571763.
Results are given in words; binding and its absence hold for the method and conditions named. Binding seen in cells or lysates may run through a third protein. Some results given as binding are weak or reduced against the parent protein; the word gives no strength.

Tests used:
Tspan8 (human) [1] = biological target: T1, Tspan8 (human) (UniProt P19075); assay: co-IP; Is1-tspan8 cells, 1% Brij97 lysate (30 mM Tris pH 7.4, 150 mM NaCl, 1 mM CaCl2, 1 mM MgCl2), 4 °C; IP with mAb TS29.2 (Tspan8) or TS9 (CD9) and protein G-sepharose; western blot for ECE1
T1 sequence: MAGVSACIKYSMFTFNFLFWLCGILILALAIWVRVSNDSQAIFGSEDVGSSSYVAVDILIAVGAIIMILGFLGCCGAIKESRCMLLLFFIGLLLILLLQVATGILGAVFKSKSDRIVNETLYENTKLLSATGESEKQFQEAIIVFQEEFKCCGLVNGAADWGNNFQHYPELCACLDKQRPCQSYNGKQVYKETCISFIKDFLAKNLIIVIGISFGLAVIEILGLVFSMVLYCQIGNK

Tspan8 (human) [2] = biological target: T1, Tspan8 (human); assay: co-IP; Is1-tspan8 cells, surface proteins biotinylated before lysis in Brij97; IP of Tspan8 with TS29.2; half eluted with 1% Triton X100 and the biotinylated proteins recovered on streptavidin beads; blots with TS29.2 (non-reducing) and ECE1 antibody (reducing)

binding (Tspan8 (human) [1]): binds
binding (Tspan8 (human) [2]): binds
B1: endothelin converting enzyme 1 (ECE1) (enzyme, UniProt P42892 1-770)
chain: MRGVWPPPVSALLSALGMSTYKRATLDEEDLVDSLSEGDAYPNGLQVNFHSPRSGQRCWAARTQVEKRLVVLVVLLAAGLVACLAALGIQYQTRSPSVCLSEACVSVTSSILSSMDPTVDPCHDFFSYACGGWIKANPVPDGHSRWGTFSNLWEHNQAIIKHLLENSTASVSEAERKAQVYYRACMNETRIEELRAKPLMELIERLGGWNITGPWAKDNFQDTLQVVTAHYRTSPFFSVYVSADSKNSNSNVIQVDQSGLGLPSRDYYLNKTENEKVLTGYLNYMVQLGKLLGGGDEEAIRPQMQQILDFETALANITIPQEKRRDEELIYHKVTAAELQTLAPAINWLPFLNTIFYPVEINESEPIVVYDKEYLEQISTLINTTDRCLLNNYMIWNLVRKTSSFLDQRFQDADEKFMEVMYGTKKTCLPRWKFCVSDTENNLGFALGPMFVKATFAEDSKSIATEIILEIKKAFEESLSTLKWMDEETRKSAKEKADAIYNMIGYPNFIMDPKELDKVFNDYTAVPDLYFENAMRFFNFSWRVTADQLRKAPNRDQWSMTPPMVNAYYSPTKNEIVFPAGILQAPFYTRSSPKALNFGGIGVVVGHELTHAFDDQGREYDKDGNLRPWWKNSSVEAFKRQTECMVEQYSNYSVNGEPVNGRHTLGENIADNGGLKAAYRAYQNWVKKNGAEHSLPTLGLTNNQLFFLGFAQVWCSVRTPESSHEGLITDPHSPSRFRVIGSLSNSKEFSEHFRCPPGSPMNPPHKCEVW
